Experimental data as given in PubChem BioAssay AID1259415 (National Center for Advancing Translational Sciences (NCATS), 2018).
Out of some 410,000 compounds screened, about 18,000 (4.4%) were called active. The inconclusive results got no clear call from the source; some entries with a clear call stand among them for comparison. Cut-off read from the data, not from the text of the source: active = activity change below about -60%; inconclusive = no clear call, values can overlap the other calls; inactive = above about -39%.
% is set by controls: 0 for no effect and ±100 for the full control effect.

Assay: qHTS Assay for inhibitors of the human cytomegalovirus (HCMV)
Conditions: HFF cells, HCMV-luciferase reporter, 72 h; at 57.5 µM; active compounds read low
How it was run: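 Cell-based, HFFs, 1000 cells/well, 16 h 37C; cpds in DMSO + HCMV-luc, MOI 1 PFU/cell; 72 h 37C; OneGlo luminescence after 5 min RT; norm. to buffer vs Salinomycin 10uM.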
For `COc1ccc(Cl)cc1NC(=O)c1ccc2c(c1)CCN2S(C)(=O)=O`, the activity change, negative = inhibition was inconclusive: -48.3%.
In the case of `COc1cccc(Nc2sc(C(=O)c3ccc(Cl)cc3)c(N)c2C(=O)NCc2ccc(C)cc2)c1`, the activity change, negative = inhibition is reported as active: -80.1%.
For `CCCCOC(=O)NC1CCS(=O)(=O)C1` (centres undefined), the activity change, negative = inhibition was inconclusive: -40.1%.
For `O=C(c1cnn2c(C(F)(F)F)cc(-c3cccs3)nc12)N1CCCC1`, the activity change, negative = inhibition was inconclusive: -48.6%.
With `Cc1c(Cc2ccccc2)c(=O)oc2cc(OCC(=O)NCc3ccccn3)ccc12` the activity change, negative = inhibition was active: -63%.
For `COc1ccc(-c2ccc3c(c2)[C@@H]2C[C@H](N(C)C(=O)Nc4ccccc4)[C@H]([C@H](C)O)C(=O)N2CC3)cc1`, the activity change, negative = inhibition was inactive: -4.89%.
For `CCOc1ccc(NS(=O)(=O)c2cc(NC(=O)c3cccc(C)c3)ccc2Cl)cc1`, the activity change, negative = inhibition was inconclusive: -46.3%.
In the case of `Cc1ccc(N(C(=O)CNC(=O)c2ccco2)C(C(=O)NC2CCCC2)c2ccncc2)cc1F` (centres undefined), the activity change, negative = inhibition is reported as inactive: 17.9%.
For `Cc1nn(-c2ccc(F)cc2)c(Cl)c1/C=C/C(=O)N1CCNC(=O)C1`, the activity change, negative = inhibition was inconclusive: -57.2%.
For `COc1ccc(CCC(=O)NCc2nc3cccnc3n2Cc2ccc(F)cc2)cc1`, the activity change, negative = inhibition was inconclusive: -54.2%.
In the case of `Cc1ccc(-c2nnc(Nc3cccc(O)c3)c3ccccc23)cc1S(=O)(=O)NCC1CCCO1` (centres undefined), the activity change, negative = inhibition is reported as inconclusive: -53.5%.
For `CCOc1ccccc1N(C(=O)c1snc(C(N)=O)c1N)C(CC)C(=O)NC1CCCC1` (centres undefined), the activity change, negative = inhibition was inconclusive: -50.6%.
With `O=C(NCc1ccccc1Cl)c1ccc2c(c1)N(Cc1ccccc1)C(=O)CS2` the activity change, negative = inhibition was active: -65.1%.
With `COCCCNC(=O)c1ccccc1Oc1ccccc1` the activity change, negative = inhibition was inactive: 23.7%.
With `O=C(CSc1nc(-c2ccco2)cc(C(F)(F)F)n1)Nc1ccc2c(c1)OCO2` the activity change, negative = inhibition was inconclusive: -42.3%.
With `Cc1ccc2oc(C(=O)Nc3cc(C)on3)c(C)c2c1` the activity change, negative = inhibition was inconclusive: -53.5%.
In the case of `CCOC(=O)N1CCC(NC(=O)c2cnn(-c3cccc(F)c3)c2-n2cccc2)CC1`, the activity change, negative = inhibition is reported as inactive: 0%.
For `CCOCCOc1cccc(C(=O)NC(c2ccccc2)C(C)C)c1` (centres undefined), the activity change, negative = inhibition was inconclusive: -43.6%.
In the case of `CCOC(=O)CNc1ncnc2nc[nH]c12`, the activity change, negative = inhibition is reported as inconclusive: -41.4%.
With `Cc1ccc(-n2ncc3c2CCCC3NC(=O)c2ccccc2N2CCOCC2)cc1C` (centres undefined) the activity change, negative = inhibition was inactive: -21%.
With `COc1ccc(-n2cc(C#N)c(=O)n(Cc3ccc(F)cc3)c2=O)cc1` the activity change, negative = inhibition was inconclusive: -46%.
In the case of `CCCOc1ccc(C(=O)Nc2ccc(S(=O)(=O)Nc3cc(C)nc(C)n3)cc2)cc1`, the activity change, negative = inhibition is reported as inconclusive: 0%.
With `CCNc1nc(Cl)nc(NC2CCCCC2)n1` the activity change, negative = inhibition was inactive: 21.8%.
In the case of `Cc1ccc(N2CCN(C(=O)c3cnn(-c4ccc(F)cc4F)c3C3CCN(C(=O)OC(C)(C)C)CC3)CC2)c(C)c1`, the activity change, negative = inhibition is reported as inconclusive: 0%.
With `O=C(Nc1ccc(S(=O)(=O)N2CCOCC2)cc1)c1ccc([N+](=O)[O-])o1` the activity change, negative = inhibition was active: -98.5%.
For `COc1cc(OC)c(N(C)C(=O)c2cn(C3CCCC3)c(=O)c3c2c2ccccc2n3C)cc1Cl`, the activity change, negative = inhibition was inconclusive: -53.5%.
For `Cc1cccc(NC(=O)Cn2nc3c4ccccc4n(Cc4ccccc4)cc-3c2=O)c1`, the activity change, negative = inhibition was inconclusive: -44.2%.
In the case of `Cn1c(NCc2ccc3occc3c2)nc2cc(-c3ccc(F)cc3)sc2c1=O`, the activity change, negative = inhibition is reported as inconclusive: -41.9%.
In the case of `CC(C)(CCl)C(=O)Nc1ccc(C(F)(F)F)cc1`, the activity change, negative = inhibition is reported as active: -76.4%.
For `CC1=C(C(=O)N2CCCCCC2)CC(CC(=O)NCC2CCCCC2)C(=O)N1Cc1ccc(F)cc1` (centres undefined), the activity change, negative = inhibition was inactive: 6.24%.
In the case of `COc1ccc(C(=O)CC2(O)C(=O)N(CN3CCOCC3)c3ccc(Br)cc32)cc1` (centres undefined), the activity change, negative = inhibition is reported as inconclusive: -49.4%.
With `CC(C)c1ccc(NC2CCCN(C(=O)c3cccs3)C2)cc1` (centres undefined) the activity change, negative = inhibition was inconclusive: -52.5%.
With `Cc1ccc(-n2nnnc2-c2cnn(-c3ccc(F)cc3)c2C(F)(F)F)cc1` the activity change, negative = inhibition was active: -69.8%.
In the case of `CC[C@@H](C)[C@H](CNC)NC[C@@H](Cc1cccc2ccccc12)NCCc1cccc(C(F)(F)F)c1`, the activity change, negative = inhibition is reported as active: -99.1%.
For `O=C(N/N=C/c1ccc(O)cc1)c1cc(-c2ccc3c(c2)OCO3)n[nH]1`, the activity change, negative = inhibition was inconclusive: -44.3%.
In the case of `Cn1c(CCN2CCCCC2)nc2cc(NC(=O)COc3ccccc3)ccc21`, the activity change, negative = inhibition is reported as active: -73.3%.
With `CC1CCCCN1C(C(=O)O)c1ccccc1` (centres undefined) the activity change, negative = inhibition was inconclusive: -56.4%.
With `O=C(Oc1ccc(-c2ccccc2)cc1)C1C2CCCCC21` (centres undefined) the activity change, negative = inhibition was inconclusive: -56.1%.
With `CCn1c(C(=O)N2CCc3ccccc3C2)cc2sccc21` the activity change, negative = inhibition was inconclusive: -57%.
With `CCCCN(CCCC)CCNC(=O)CN1C(=O)CSc2ccc(S(=O)(=O)N3CCOCC3)cc21` the activity change, negative = inhibition was inconclusive: -41.8%.
For `Cc1ccccc1OCCCCn1c(CO)nc2ccccc21`, the activity change, negative = inhibition was active: -93.9%.
With `Cc1noc(C)c1CCC(=O)Nc1c(C(C)C)cccc1C(C)C` the activity change, negative = inhibition was inconclusive: 0%.
In the case of `CCN1CCN(C(=S)Nc2cccc([N+](=O)[O-])c2)CC1`, the activity change, negative = inhibition is reported as inactive: -2.09%.
In the case of `N/C(=N\OC(=O)c1ccc2c(c1)OCO2)c1cccc([N+](=O)[O-])c1`, the activity change, negative = inhibition is reported as inconclusive: -51.3%.
With `CS(=O)(=O)c1ccc2nc(NC(=O)C3CC(=O)N(c4ccccc4)C3)sc2c1` (centres undefined) the activity change, negative = inhibition was inconclusive: -50.1%.
For `CCOC(=O)c1sc2ccccc2c1S(=O)(=O)N1CCN(c2cccc(C)c2)C(C)C1` (centres undefined), the activity change, negative = inhibition was inactive: -24%.
For `COc1ccc2ccccc2c1CNCc1ccccn1`, the activity change, negative = inhibition was inconclusive: -48.5%.
With `CC(C)Cc1ccc(CN2CCCC(NC(=O)CCCN3CCCC3=O)C2)cc1` (centres undefined) the activity change, negative = inhibition was inactive: -37.3%.
For `O=C(Cn1c(=O)oc2ccccc21)NCCc1ccccc1`, the activity change, negative = inhibition was inconclusive: -53.6%.
In the case of `O=C(CCCN1C(=O)/C(=C\c2cccc(Br)c2)SC1=S)Nc1ccc(C(=O)O)cc1`, the activity change, negative = inhibition is reported as inconclusive: -45.7%.
With `COc1cc(NC(=O)C2CCN(c3cnccn3)CC2)cc(OC)c1OC` the activity change, negative = inhibition was inconclusive: -40.5%.
With `Cc1ccc(C2(c3ccc(C)cc3)NC(=O)N(CC(=O)NCCCN3CCCC3=O)C2=O)cc1` the activity change, negative = inhibition was inconclusive: -44%.
In the case of `CC1(Cc2cc(Cl)ccc2C(F)(F)F)C(=O)Nc2cc(-c3ccccc3Cl)ccc21` (centres undefined), the activity change, negative = inhibition is reported as inactive: 2.64%.
For `O=C(NNC(=O)c1ccccc1F)c1cccc(Cl)c1`, the activity change, negative = inhibition was inactive: 67.4%.
